Test results taken from PubChem BioAssay AID901 (National Center for Advancing Translational Sciences (NCATS), 2007).
The list shows a part of the results. Shown are side measurements of this screen, not its main read-out; they come without a call. Compounds called inactive in the main read-out are mostly missing here. The note in brackets gives the kind of curve behind each potency; many fits are weak.

Experiment: qHTS Assay for Identifying the Cell-Membrane Permeable IMPase Inhibitors
Settings: CHO-M1 cells, IP1 accumulation, HTRF TR-FRET ratio; measured here: donor channel 620 nm AC50

| Structure (SMILES) | AC50 |
| --- | --- |
| O=c1[nH]c(N2CCN(c3ccccc3)CC2)nc2c1CCC2 | 35.5 µM [falling, single point] |
| O=C(C1=C(O)C(=O)N(CCc2ccccc2)C1c1cccnc1)c1ccco1 (configuration not stated) | 6.31 µM [rising, partial curve, poor fit] |
| COC(=O)Nc1sc2c(c1C(=O)N1CCOCC1)CCC(C)C2 (configuration not stated) | 0.141 µM [rising, full curve, poor fit] |
| Cn1c(=O)c2c(nc(N3CCCCCC3)n2Cc2cccc3ccccc23)n(C)c1=O | 3.16 µM [falling, partial curve] |
| CCOc1cccc(C2C(C(=O)c3ccc(C)o3)=C(O)C(=O)N2c2nccs2)c1 (configuration not stated) | 20 µM [rising, partial curve, poor fit] |
| CC1CCc2c(sc3ncnc(N4CCOCC4)c23)C1 (configuration not stated) | 3.16 µM [rising, single point] |
| COc1ccc2c(Cl)c(C(N)=O)sc2c1 | 12.6 µM [rising, partial curve] |
| Cc1nnc(SCC(=O)Nc2ccc3c(c2)OCCO3)n1N | 0.251 µM [falling, full curve, poor fit] |
| Cn1c(NC(=O)c2ccc(Cl)cc2)c(-c2ccccn2)c(=O)c2ccccc21 | 31.6 µM [rising, single point] |
| C=CCNC(=O)CSc1nnc(-c2cccs2)o1 | 0.00316 µM [falling, full curve] |
| Cc1ccc(-c2nnc(Nc3ccc(S(N)(=O)=O)cc3)c3ccccc23)cc1S(=O)(=O)N1CCCCC1 | 17.8 µM [rising, single point] |
| COc1cc(OC)cc(C(=O)Nc2ccc3oc(-c4cccc5c(Br)cccc45)nc3c2)c1 | 0.794 µM [falling, single point] |
| O=C(N/N=C/c1ccc(Cl)c([N+](=O)[O-])c1)c1ccc2nc[nH]c2c1 | 0.794 µM [rising, full curve, poor fit] |
| CN1/C(=N\O)c2cccc3cccc1c23 | 0.0316 µM [falling, full curve, poor fit] |
| CCc1nc(N)nc2c1C(=O)CC(C)(C)C2 | 0.0631 µM [rising, partial curve, poor fit] |
| CC(C)(Oc1ccc(Cl)cc1)C(=O)Nc1nc2ccc(S(C)(=O)=O)cc2s1 | 0.355 µM [falling, partial curve, poor fit] |
| O=C(c1ccc(F)cc1)n1nc(-c2ccccc2)nc1NCc1ccco1 | 0.00501 µM [falling, full curve, poor fit] |
| COc1ccc(Cn2nnnc2C(c2cccs2)N2CCCCCC2)cc1 (configuration not stated) | 20 µM [falling, single point] |
| CC1=C(C(=O)Nc2ccccc2)C(c2ccc(C)o2)n2c(s/c(=C\c3ccco3)c2=O)=N1 (configuration not stated) | 0.0158 µM [falling, full curve, poor fit] |
| FC(F)(F)c1cccc(Nc2ncnc3ccccc23)c1 | 0.0501 µM [falling, full curve] |
| CC1(C)CC2CC(C)(CN2C(=O)c2cccs2)C1 (configuration not stated) | 0.00447 µM [falling, full curve, poor fit] |
| N#CCCN1CCN(S(=O)(=O)c2ccc(S(=O)(=O)N3CCCC3)cc2)CC1 | 14.1 µM [falling, single point] |
| C/C(CCc1oc2ccccc2c1-c1ccc(C)o1)=N/O | 0.501 µM [falling, single point] |

Some values from the entries so far:
Value of `FC(F)(F)c1cccc(Nc2ncnc3ccccc23)c1` under AC50: 0.0501 µM [falling, full curve]
Value of `COc1cc(OC)cc(C(=O)Nc2ccc3oc(-c4cccc5c(Br)cccc45)nc3c2)c1` under AC50: 0.794 µM [falling, single point]
Value of `CC1(C)CC2CC(C)(CN2C(=O)c2cccs2)C1` (configuration not stated) under AC50: 0.00447 µM [falling, full curve, poor fit]
Value of `Cc1nnc(SCC(=O)Nc2ccc3c(c2)OCCO3)n1N` under AC50: 0.251 µM [falling, full curve, poor fit]

The list continues.

| Structure (SMILES) | AC50 |
| --- | --- |
| Cc1cc(-c2ccccc2)[nH]c(=O)c1S(=O)(=O)c1ccc(Cl)cc1 | 0.794 µM [falling, full curve, poor fit] |
| CC(C)(C)n1c(=O)[nH]c2c(c1=O)CCC2 | 0.2 µM [rising, full curve, poor fit] |
| COC(=O)CSc1nnc(-c2ccncc2)n1N | 3.16 µM [rising, partial curve] |
| O=C(CN1C(=O)c2ccccc2S1(=O)=O)NC1CCCCCC1 | 35.5 µM [falling, single point] |
| O=C(NC1CCCCC1)C12CC3CC(C1)CC(n1cncn1)(C3)C2 | 0.2 µM [rising, full curve, poor fit] |
| CCCCOc1cccc(C2(C(=O)O)CCCC2)c1 | 0.0126 µM [falling, full curve] |
| CC(C)(C)c1ccc(C(=O)CC(=O)c2cc(Cl)ccc2O)cc1 | 5.01 µM [falling, partial curve] |
| Cc1nn(CC#N)c(=O)n1-c1ccc(F)cc1 | 0.794 µM [falling, full curve, poor fit] |
| CCOC(=O)c1[nH]c2ccc(OC)cc2c1NC(=O)C(C)N1CCC2(CC1)OCCO2 (configuration not stated) | 31.6 µM [falling, single point] |
| Cc1ccc(S(=O)(=O)c2nc(-c3ccc(F)cc3)oc2SCC(N)=O)cc1 | 31.6 µM [falling, partial curve] |
| CCOC(=O)C(=O)Nc1nnc(Cc2ccc(OC)c(OC)c2)s1 | 0.126 µM [rising, partial curve] |
| O=C(Nc1ccc(-c2nnc3n2CCCCC3)cc1)c1cnccn1 | 0.00447 µM [falling, full curve, poor fit] |
| Nc1nc(CSc2nc3ccccc3s2)nc(Nc2ccccc2)n1 | 6.31 µM [falling, single point] |
| Cc1c(NC(=O)CN2CCN(C(=O)c3ccco3)CC2)c(=O)n(-c2ccccc2)n1C | 0.0501 µM [falling, full curve, poor fit] |
| O=[N+]([O-])c1ccccc1/C=N/NC1=NCCCCC1 | 3.55 µM [falling, single point] |
| CC1CCC2(CC1)SCC(=O)N2c1ccccc1 (configuration not stated) | 0.794 µM [falling, full curve] |
| COc1cc2oc(=O)c(Br)c(C)c2c(OC)c1OC | 12.6 µM [rising, partial curve, poor fit] |
| Cc1noc(NS(=O)(=O)c2ccc(N/C=C/C(=O)c3ccncc3)cc2)c1C | 31.6 µM [falling, single point] |
| O=C(CN(Cc1cccs1)C(=O)c1csnn1)NC1CCCC1 | 31.6 µM [falling, single point] |
| CC(OC(=O)c1ccncc1)C(=O)Nc1cccc(Cl)c1 (configuration not stated) | 0.158 µM [falling, full curve, poor fit] |
| O=C(OCn1ncc(Br)c(Br)c1=O)c1ccccc1Cl | 25.1 µM [rising, partial curve] |
| O=C(Nc1ccccc1C(=O)N1CCOCC1)c1ccco1 | 0.501 µM [falling, full curve, poor fit] |
| O=C(NCc1ccco1)C1CCC(N2C(=O)c3ccccc3C2=O)CC1 (configuration not stated) | 0.0126 µM [rising, full curve, poor fit] |

| Structure (SMILES) | AC50 |
| --- | --- |
| COc1ccccc1NC(=O)c1ccc(NC(=O)CSc2ncn[nH]2)cc1 | 0.0562 µM [rising, full curve, poor fit] |
| CN(C)c1ncnc2c1NC1=C(S2)C(=NCCCC(=O)O)CC(C)(C)C1 | 25.1 µM [falling, single point] |
| Cn1cccc1Cc1nnc(SCC(=O)N2CCCc3ccccc32)n1-c1ccc(F)cc1 | 3.55 µM [falling, single point] |
| COc1ccc2oc(=O)c(C(=O)NCc3ccccn3)cc2c1 | 5.01 µM [rising, single point] |
| Cc1cc(CN(C)C)c(O)c(C2(C)CCCCC2)c1 | 0.708 µM [rising, single point] |
| Cc1cc(NC(=O)CSc2nc(-c3ccccc3)c(C#N)c(=O)[nH]2)no1 | 12.6 µM [rising, partial curve] |
| Cc1ccc2nc(-c3cccnc3)c(Nc3ccccc3C)n2c1 | 0.178 µM [falling, full curve, poor fit] |
| CCCCNC(=O)c1cc2nc3c(c(C(F)(F)F)n2n1)CCc1ccccc1-3 | 12.6 µM [falling, partial curve] |
| CCOC(=O)C1=C(CSc2nc3ccccc3s2)NC(=O)NC1c1cccc([N+](=O)[O-])c1 (configuration not stated) | 0.1 µM [falling, partial curve] |
| CC(C)NC(=S)NC(=O)c1ccc(-c2ccccc2)cc1 | 15.8 µM [rising, partial curve] |
| COC(=O)c1sc(NC(=O)C2CCCCC2C(=O)O)c(C(=O)OC)c1C (configuration not stated) | 20 µM [rising, single point] |
| N#CC1=C(N)SC(C(=O)c2ccccc2)C1c1cccs1 (configuration not stated) | 0.2 µM [rising, single point] |
| O=C(COC(=O)CCc1c[nH]c2ccccc12)NC1CCS(=O)(=O)C1 (configuration not stated) | 0.794 µM [falling, full curve] |
| O=S1(=O)C=C(Sc2nnc(-c3ccccc3)o2)c2ccccc21 | 12.6 µM [rising, partial curve] |
| Cc1ccc(C)c(N2CCN(C(=O)CN(C)S(=O)(=O)c3cnc[nH]3)CC2)c1 | 31.6 µM [falling, single point] |
| Cc1cc(C)n(Cc2ccc(NC(=O)c3nn(C)cc3[N+](=O)[O-])cc2)n1 | 0.0631 µM [falling, full curve, poor fit] |
| O=C(CSc1nc(-c2ccc(F)cc2)cc(C(F)(F)F)n1)NCCc1ccccc1 | 0.141 µM [falling, full curve] |
| CCn1nnnc1SCC(=O)c1ccc2c(c1)OCCO2 | 15.8 µM [rising, single point] |
| COc1ccc(CNC(=O)CCc2nc(-c3ccc(C)cc3)no2)c(OC)c1 | 22.4 µM [rising, partial curve, poor fit] |
| CCCNC(=O)c1ccc2snnc2c1 | 0.631 µM [rising, full curve, poor fit] |
| Cc1[nH]n2c(=O)cc(C(C)(C)C)nc2c1-c1ccccc1 | 3.16 µM [rising, single point] |
